These results are taken from US20250129076A1, “FUSED TETRACYCLIC COMPOUNDS, COMPOSITIONS AND DIAGNOSTIC APPLICATIONS THEREOF” (priority 2021, published 2025).

The amount applied is not stated for every result.

The data set concerns live/Fixed cell. The experiment in a line: Comparison with commonly available DNA staining agents: cell staining performance (Table 3). The format is cell-based.

With `N=C(N)c1ccc(-c2cc3ccc(C(=N)N)cc3[nH]2)cc1` [DAPI], the “Speed (Incubation)” value is 15 to 30 min.
